Holding throughout (test): co-IP; lysates of HEK293A-T-REx cells stably expressing RAD9-mH (WT or mutants); anti-myc antibody-coated agarose beads; HEPES buffer pH 7.4, 150 mM NaCl, 0.1% NP40, 0.1% Triton X-100; with or without UV (PLK1-HA), with 0.2 mM HU for 24 hr (CLASPIN); blots with anti-PLK1, anti-CLASPIN, anti-RAD9
The target of experiment [1] is T1, RAD9-S291A/T292A-mH (human) (UniProt Q99638).
T1 sequence: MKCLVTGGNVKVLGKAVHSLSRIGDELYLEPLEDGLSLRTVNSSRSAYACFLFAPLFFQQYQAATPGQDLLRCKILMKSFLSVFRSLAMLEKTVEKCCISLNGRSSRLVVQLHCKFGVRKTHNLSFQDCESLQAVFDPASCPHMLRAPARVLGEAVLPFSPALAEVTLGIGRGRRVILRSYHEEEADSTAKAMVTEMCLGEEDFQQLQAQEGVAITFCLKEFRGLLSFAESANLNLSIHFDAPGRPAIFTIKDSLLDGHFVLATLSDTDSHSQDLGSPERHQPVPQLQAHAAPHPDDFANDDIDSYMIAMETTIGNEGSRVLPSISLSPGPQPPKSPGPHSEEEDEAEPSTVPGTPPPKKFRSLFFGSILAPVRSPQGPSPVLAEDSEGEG

Chains of the proteins cited; added tags and fusions are not shown.
UniProt Q9HAW4: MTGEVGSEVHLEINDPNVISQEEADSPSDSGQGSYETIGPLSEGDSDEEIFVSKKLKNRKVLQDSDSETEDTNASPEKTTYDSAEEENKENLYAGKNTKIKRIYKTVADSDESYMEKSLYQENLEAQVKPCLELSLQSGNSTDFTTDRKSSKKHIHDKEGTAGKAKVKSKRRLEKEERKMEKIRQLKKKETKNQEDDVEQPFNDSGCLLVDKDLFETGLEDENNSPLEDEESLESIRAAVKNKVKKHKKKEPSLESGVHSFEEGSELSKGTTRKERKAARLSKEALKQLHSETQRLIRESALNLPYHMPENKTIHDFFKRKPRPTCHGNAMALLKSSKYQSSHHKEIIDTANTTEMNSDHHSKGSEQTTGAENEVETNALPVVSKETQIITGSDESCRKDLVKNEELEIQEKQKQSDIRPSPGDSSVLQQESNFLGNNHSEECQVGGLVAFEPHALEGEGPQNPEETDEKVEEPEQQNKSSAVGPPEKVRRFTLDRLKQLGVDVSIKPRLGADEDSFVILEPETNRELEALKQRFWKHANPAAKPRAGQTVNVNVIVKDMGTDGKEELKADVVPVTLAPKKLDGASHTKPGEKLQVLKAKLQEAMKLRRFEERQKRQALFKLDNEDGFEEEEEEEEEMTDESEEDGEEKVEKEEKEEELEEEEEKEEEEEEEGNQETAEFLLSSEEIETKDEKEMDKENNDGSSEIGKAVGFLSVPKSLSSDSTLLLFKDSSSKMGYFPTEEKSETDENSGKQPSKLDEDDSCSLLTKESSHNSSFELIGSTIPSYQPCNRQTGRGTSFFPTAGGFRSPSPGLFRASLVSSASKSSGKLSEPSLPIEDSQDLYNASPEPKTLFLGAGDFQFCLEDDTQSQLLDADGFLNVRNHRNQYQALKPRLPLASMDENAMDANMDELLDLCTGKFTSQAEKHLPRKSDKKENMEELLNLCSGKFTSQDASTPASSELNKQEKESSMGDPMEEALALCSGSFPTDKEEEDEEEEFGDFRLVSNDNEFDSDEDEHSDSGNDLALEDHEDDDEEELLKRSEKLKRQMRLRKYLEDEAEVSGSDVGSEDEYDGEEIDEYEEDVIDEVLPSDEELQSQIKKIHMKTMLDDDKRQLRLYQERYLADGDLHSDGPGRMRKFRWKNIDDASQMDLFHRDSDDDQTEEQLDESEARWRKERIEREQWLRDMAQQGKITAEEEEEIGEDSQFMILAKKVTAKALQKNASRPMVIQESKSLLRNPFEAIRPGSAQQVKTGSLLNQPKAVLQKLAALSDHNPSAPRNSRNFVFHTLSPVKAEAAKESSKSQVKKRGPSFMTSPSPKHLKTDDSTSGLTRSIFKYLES
UniProt P53350: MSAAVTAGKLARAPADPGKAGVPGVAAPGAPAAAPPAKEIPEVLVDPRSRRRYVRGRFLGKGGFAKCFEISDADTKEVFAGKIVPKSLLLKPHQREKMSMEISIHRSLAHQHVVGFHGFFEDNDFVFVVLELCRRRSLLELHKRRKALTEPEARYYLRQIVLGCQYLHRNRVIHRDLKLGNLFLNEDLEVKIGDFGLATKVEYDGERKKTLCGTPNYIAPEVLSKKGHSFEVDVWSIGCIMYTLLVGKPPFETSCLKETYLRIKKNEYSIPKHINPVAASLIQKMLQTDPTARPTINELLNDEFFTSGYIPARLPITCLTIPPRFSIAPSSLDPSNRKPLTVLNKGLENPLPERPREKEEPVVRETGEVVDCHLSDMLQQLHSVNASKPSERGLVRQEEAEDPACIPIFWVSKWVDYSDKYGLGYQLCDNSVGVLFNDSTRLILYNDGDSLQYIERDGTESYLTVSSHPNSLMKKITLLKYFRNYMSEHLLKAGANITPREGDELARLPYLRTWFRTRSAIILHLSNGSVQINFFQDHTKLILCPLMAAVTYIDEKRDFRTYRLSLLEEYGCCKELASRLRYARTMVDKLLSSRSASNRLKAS

The target in the next experiment is T2, RAD9-T313A-mH (human) (UniProt Q99638).
T2 sequence: T1 sequence with A291S, A292T, T313A

For experiment [2], the target named is T3, RAD9-WT-mH (wild-type RAD9 with C-terminal myc-His6 tag) (human) (UniProt Q99638).
T3 sequence: T1 sequence with A291S, A292T

Residue numbers refer to the chain shown, from its start. Results are given in words; binding and its absence hold for the method and conditions named. Binding seen in cells or lysates may run through a third protein. Some results given as binding are weak or reduced against the parent protein; the word gives no strength. For some of these results: Tags and fused reporters may be left off the sequences shown.

For “CLASPIN, endogenous (from UniProt Q9HAW4 1-1339)”, the binding entry (in experiment [1]; with RAD9-T313A-mH (human)) was “binds” throughout.
Turning to “PLK1, endogenous (from UniProt P53350 1-603) (enzyme)”, the binding entry in experiment [2] is “binds”.
As for “PLK1-HA, ectopically expressed (from UniProt P53350 1-603) (enzyme)”, the binding entry in experiment [2] is reported as “binds”.

Values taken from publication PMC5736350.
